The target in assay [1] is Myst2 (endogenous, mESCs) (mouse (endogenous in mESCs)) (UniProt Q5SVQ0). Put plainly: co-IP; endogenous proteins in MG132 treated mESCs; immunoprecipitation with Myst2 antibody; western blot with anti-Myst2, anti-Brpf3 and Huwe1 antibodies.
Assay [2] addresses FLAG-tagged Myst2 (bait of the first step of the sequential immunoprecipitation) (UniProt Q5SVQ0). Briefly: co-IP; sequential immunoprecipitation: first with anti-FLAG affinity gel, elution with 200 ng/µl 3XFLAG peptides, second with Brpf3 antibody and protein A beads.
Assay [3] addresses Myst2 (ectopically expressed in 293T cells) (UniProt Q5SVQ0). Briefly: co-IP; proteins ectopically expressed in 293T cells (Supplementary Fig. S3); bait and tags not shown.
Assay [4] addresses Myst2 (source not stated) (UniProt Q5SVQ0). Put plainly: co-IP; lysates of Brpf3-overexpressing cells immunoprecipitated with anti-Myst2 antibody; western blot with anti-FLAG, anti-Huwe1 and anti-Myst2 antibodies.
Assay [5] has the same target. Put plainly: co-IP; Brpf3 deletion mutants with Myst2 (Supplementary Fig. S4b); cells and bait not shown.

Sequences of proteins named here, by UniProt entry; tags and fusion partners are left off.
UniProt Q5SVQ0: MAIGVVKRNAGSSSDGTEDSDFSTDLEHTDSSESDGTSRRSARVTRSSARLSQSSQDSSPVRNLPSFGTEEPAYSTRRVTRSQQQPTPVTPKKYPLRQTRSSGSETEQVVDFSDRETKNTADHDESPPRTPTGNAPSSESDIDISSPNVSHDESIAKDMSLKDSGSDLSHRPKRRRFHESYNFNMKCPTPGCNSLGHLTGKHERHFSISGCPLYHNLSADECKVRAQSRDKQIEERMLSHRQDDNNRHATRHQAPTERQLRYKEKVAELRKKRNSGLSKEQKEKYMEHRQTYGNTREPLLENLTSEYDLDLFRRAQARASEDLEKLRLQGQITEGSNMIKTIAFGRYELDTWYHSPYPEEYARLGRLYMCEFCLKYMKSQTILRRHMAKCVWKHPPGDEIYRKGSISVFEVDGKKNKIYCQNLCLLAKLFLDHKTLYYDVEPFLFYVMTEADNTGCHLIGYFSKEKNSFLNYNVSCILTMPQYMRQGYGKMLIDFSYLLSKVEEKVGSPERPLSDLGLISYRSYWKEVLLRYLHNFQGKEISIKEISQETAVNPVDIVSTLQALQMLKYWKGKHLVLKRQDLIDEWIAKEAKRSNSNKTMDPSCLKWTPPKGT

No constants are given. Whether binding was seen depends on the method and setting. In cells and extracts the contact can be indirect. Some binding calls cover weakened binding; strength is not graded here. For some assays here: Sequences can lack the tags named with a protein.

Regarding “Brpf3 (endogenous, mESCs) (from UniProt B2KF05 1-1204)”, the binding entry in assay [1] is listed as “binds”.

On to “Brpf3 (in the sequential immunoprecipitation) (from UniProt B2KF05 1-1204)”, for which the binding entry in assay [2] is on record as “binds”.

Regarding “FLAG-tagged Brpf3 (wild type) (from UniProt B2KF05 1-1204)”, the binding result in assay [3] and in assay [4] was “binds” throughout.

B1: FLAG-tagged Brpf3-N127 (domain or fragment, UniProt B2KF05 1-127)
chain: MRKPRRKSRQNAEGRRSPSPYSLKCSPTRETLTYAQAQRIVEVDIDGRLHRISIYDPLKIITEDELTAQDITECNSNKENSEQPQFPAKSKKPSSKGKRKESCSKHASGTSFHLPQPSFRVVDTGSQ
With B1, the binding result in assay [5] was “binds”.

The record behind these values is paper PMC7853152.
